Source: patent publication US20250146080A1, “METHODS FOR OVERCOMING TAZEMETOSTAT-RESISTANCE IN CANCER PATIENTS” (MEMORIAL SLOAN-KETTERING CANCER CENTER, priority 2022, published 2025)
Read-outs that look alike come from different tables or passages of the source.

How the values were obtained:
[1] = test system: RB1^WT G401 cells; experiment: Cell viability (CellTiter-Glo) dose response, G401 RB1^WT; assay type: cell-based; conditions: Homo sapiens, G-401, 96 h, read-out: half-maximal effective concentration
Procedure: (§1) Drug and media were replaced on Days 4, 7, and 11. CellTiter-Glo assays were performed on Day 14, with luminescence readings taken using an automated fluorescence plate reader (Tecan). CellTiter-Glo reagent was freshly reconstituted on the day of measurement and added in a 1:1 proportion to cell media. […] Cell line doubling time was determined by measuring cell viability every 24 hours over the course of 4 days, and fitting the cell viability to a two-parameter exponential curve. […] After the addition of cells, drugs were added using a pin tool (stainless steel pins with 50 nL slots, V&P Scientific) mounted onto a liquid handling robot (CyBio Well vario, Analytik Jena). For analysis of synergy, we used the synergyFinder package (2). Outliers due to pinning errors were excluded after manual examination.

[2] = test system: RB1^del G401 cells; experiment: Cell viability (CellTiter-Glo), G401 RB1^del clones E1 and F2; assay type: cell-based; conditions: Homo sapiens, G-401, 96 h
Procedure: G401 cells with RB1 mutations were engineered by Synthego. […] Ribonucleprotein containing spCas9 and sgRNA was transfected into G401 cells by electroporation. […] The cells were then single-cell cloned and re-verified by Sanger sequencing.
as §1, with “CellTiter-Glo assays were performed on Day 14, with luminescence readings taken using an automated fluorescence plate reader (Tecan).” left out

## C[C@@H]1COCCN1c1cc(-c2ccnn2C)c2ccnc(-c3ccn[nH]3)c2n1 [elimusertib]
[1]
  EC50: 17.6 ± 1.6 nM
[2]; read-out: half-maximal effective concentration, G401 RB1^del E1 clone, elimusertib for 4 days
  EC50: 19.2 ± 3.8 nM
[2]; read-out: half-maximal effective concentration, G401 RB1^del F2 clone, elimusertib for 4 days
  EC50: 26.7 ± 3.2 nM
